Single values of this set are uncertain.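 Each test well overexpressed one poorly characterized human cDNA in ERalpha-negative HeLa cells together with transfected ERalpha and a reporter carrying two estrogen response elements. A gene counted as a repressor hit if it cut the signal to the level of the BRCA1 positive control (about 0.6 of empty vector) or lower.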

The data set deals with ERE-luciferase reporter with exogenous ERalpha in HeLa cells. The data set can be described thus: relative ERE luciferase activity (Firefly/Renilla) upon cDNA overexpression, relative to empty vector (fold of empty vector); higher = stronger ERalpha transactivation (less repression). Particulars: 17beta-estradiol: 10 nM; 12 h.
Turning to “MPLPDTMFCAQQIHIPPELPDILKQFTKAAIRTQPADVLRWSAGYFSALSRGDPLPVKDRMEMPTATQKTDTGLTQGLLKVLHKQCHHKRYVELTDLEQKWKNLCLPKEKFKALLQLDPCENKIKWINFLALGCSMLGGSLNTALKHLCEILTDDPEGGPARIPFKTFSYVYRYLARLDSDVSPLETESYLASLKENIDARKNGMIGLSDFFFPKRKLLESIENSEDVGH [ROPN1L]”, the “relative ERE luciferase activity” value was found to be 0.832. Consider “MPTGKQLADIGYKTFSTSMMLLTVYGGYLCSVRVYHYFQWRRAQRQAAEEQKTSGIM [C12orf62]”, for which the “relative ERE luciferase activity” value amounted to 0.939. With “MPTVISASVAPRTAAEPRSPGPVPHPAQSKATEAGGGNPSGIYSAIISRNFPIIGVKEKTFEQLHKKCLEKKVLYVDPEFPPDETSLFYSQKFPIQFVWKRPPEICENPRFIIDGANRTDICQGELGDCWFLAAIACLTLNQHLLFRVIPHDQSFIENYAGIFHFQFWRYGEWVDVVIDDCLPTYNNQLVFTKSNHRNEFWSALLEKAYAKLHGSYEALKGGNTTEAMEDFTGGVAEFFEIRDAPSDMYKIMKKAIERGSLMGCSIDDGTNMTYGTSPSGLNMGELIARMVRNMDNSLLQDSDLDPRGSDERPTRTIIPVQYETRMACGLVRGHAYSVTGLDEVPFKGEKVKLVRLRNPWGQVEWNGSWSDRWKDWSFVDKDEKARLQHQVTEDGEFWMSYEDFIYHFTKLEICNLTADALQSDKLQTWTVSVNEGRWVRGCSAGGCRNFPDTFWTNPQYRLKLLEEDDDPDDSEVICSFLVALMQKNRRKDRKLGASLFTIGFAIYEVPKEMHGNKQHLQKDFFLYNASKARSKTYINMREVSQRFRLPPSEYVIVPSTYEPHQEGEFILRVFSEKRNLSEEVENTISVDRPVKKKKTKPIIFVSDRANSNKELGVDQESEEGKGKTSPDKQKQSPQPQPGSSDQESEEQQQFRNIFKQIAGDDMEICADELKKVLNTVVNKHKDLKTHGFTLESCRSMIALMDTDGSGKLNLQEFHHLWNKIKAWQKIFKHYDTDQSGTINSYEMRNAVNDAGFHLNNQLYDIITMRYADKHMNIDFDSFICCFVRLEGMFRAFHAFDKDGDGIIKLNVLEWLQLTMYA [CAPN3]”, the “relative ERE luciferase activity” value is 1.12. Regarding “MPVKKKRKSPGVAAAVAEDGGLKKCKISSYCRSQPPARLISGEEHFSSKKCLAWFYEYAGPDEVVGPEGMEKFCEDIGVEPENIIMLVLAWKLEAESMGFFTKEEWLKGMTSLQCDCTEKLQNKFDFLRSQLNDISSFKNIYRYAFDFARDKDQRSLDIDTAKSMLALLLGRTWPLFSVFYQYLEQSKYRVMNKDQWYNVLEFSRTVHADLSNYDEDGAWPVLLDEFVEWQKVRQTS [DCUN1D5]”, the “relative ERE luciferase activity” value was determined as 1.03. For the sequence “MQESQETHISNHLDEVVAAVSITHRKKFQNKLLQTALFQPPREKLHLCEEKAKSYSNSHEYKQAVHELVRCVALTRICYGDSHWKLAEAHVNLAQGYLQLKGLSLQAKQHAEKARQILANSIVPPYSENTDVFKFSIELFHTMGRALLSLQKFKEAAENLTKAERLSKELLQCGRIIKEEWIEIEARIRLSFAQVYQGQKKSKEALSHYQAALEYVEISKGETSRECVPILRELAGVEQALGLHDVSINHFLQAHLIILSRSPSQVEAADSAHIVAHAAVASGRHEHHDVAEQYFQESMAHLKDSEGMGRTKFLSIQDEFCHFLQMTGQKERATSILRESLEAKVEAFGDFSPEVAETYRLLGGADLAQGNHSGARKKLKKCLQIQTLLYGPQDKRTLATQQAMGMLSTAPKVASKPRQASKAKVAFCTSIPQDTLLGKARPGTTAD [TTC23]”, the “relative ERE luciferase activity” value stood at 0.89. As for “MQKPCKENEGKPKCSVPKREEKRPYGEFERQQTEGNFRQRLLQSLEEFKEDIDYRHFKDEEMTREGDEMERCLEEIRGLRKKFRALHSNHRHSRDRPYPI [TCEAL7]”, the figure is 1.11; as for “MQKSCEENEGKPQNMPKAEEDRPLEDVPQEAEGNPQPSEEGVSQEAEGNPRGGPNQPGQGFKEDTPVRHLDPEEMIRGVDELERLREEIRRVRNKFVMMHWKQRHSRSRPYPVCFRP [TCEAL8]”, 1.14; as for “MQPPGPPPAYAPTNGDFTFVSSADAEDLSGSIASPDVKLNLGGDFIKESTATTFLRQRGYGWLLEVEDDDPEDNKPLLEELDIDLKDIYYKIRCVLMPMPSLGFNRQVVRDNPDFWGPLAVVLFFSMISLYGQFRVVSWIITIWIFGSLTIFLLARVLGGEVAYGQVLGVIGYSLLPLIVIAPVLLVVGSFEVVSTLIKLFGVFWAAYSAASLLVGEEFKTKKPLLIYPIFLLYIYFLSLYTGV [YIPF4]”, 1.32.

Consider “MRAVLAREMDGRRVLGRFWSGWRRGLGVRPVPEDAGFGTEARHQRQPRGSCQRSGPLGDQPFAGLLPKNLSREELVDALRAAVVDRKGPLVTLNKPQGLPVTGKPGELTLFSVLPELSQSLGLREQELQVVRASGKESSGLVLLSSCPQTASRLQKYFTHARRAQRPTATYCAVTDGIPAASEGKIQAALKLEHIDGVNLTVPVKAPSRKDILEGVKKTLSHFRVVATGSGCALVQLQPLTVFSSQLQVHMVLQLCPVLGDHMYSARVGTVLGQRFLLPAENNKPQRQVLDEALLRRLHLTPSQAAQLPLHLHLHRLLLPGTRARDTPVELLAPLPPYFSRTLQCLGLRLQ [RPUSD3]”, for which the “relative ERE luciferase activity” value turned out to be 1.25. Take “MRENVVVSNMERESGKPVAVVAVVTEPWFTQRYREYLQRQKLFDTQHRVEKMPDGSVALPVLGETLPEQHLQELRNRVAPGSPCMLTQLPDPVPSKRAQGCSPAQKLCLEVSRWVEGRGVKWSAELEADLPRSWQRHGNLLLLSEDCFQAKQWKNLGPELWETVALALGVQRLAKRGRVSPDGTRTPAVTLLLGDHGWVEHVDNGIRYKFDVTQCMFSFGNITEKLRVASLSCAGEVLVDLYAGIGYFTLPFLVHAGAAFVHACEWNPHAVVALRNNLEINGVADRCQIHFGDNRKLKLSNIADRVILGLIPSSEEGWPIACQVLRQDAGGILHIHQNVESFPGKNLQALGVSKVEKEHWLYPQQITTNQWKNGATRDSRGKMLSPATKPEWQRWAESAETRIATLLQQVHGKPWKTQILHIQPVKSYAPHVDHIVLDLECCPCPSVG [TRMT12]”: the “relative ERE luciferase activity” value was 1.17. With “MRHEAPMQMASAQDARYGQKDSSDQNFDYMFKLLIIGNSSVGKTSFLFRYADDSFTSAFVSTVGIDFKVKTVFKNEKRIKLQIWDTAGQERYRTITTAYYRGAMGFILMYDITNEESFNAVQDWSTQIKTYSWDNAQVILVGNKCDMEDERVISTERGQHLGEQLGFEFFETSAKDNINVKQTFERLVDIICDKMSESLETDPAITAAKQNTRLKETPPPPQPNCAC [RAB3C]”, the “relative ERE luciferase activity” value is 1.07. “MRLIQNMCTIAEYPAPGNAAASDCCVGAAGRRLVKIAVVGASGVGKTALVVRFLTKRFIGDYERNAGNLYTRQVQIEGETLALQVQDTPGIQVHENSLSCSEQLNRCIRWADAVVIVFSITDYKSYELISQLHQHVQQLHLGTRLPVVVVANKADLLHIKQVDPQLGLQLASMLGCSFYEVSVSENYNDVYSAFHVLCKEVSHKQQPSSTPEKRRTSLIPRPKSPNMQDLKRRFKQALSAKVRTVTSV [RASL11B]”: the “relative ERE luciferase activity” value was 1.12. As for “MRLPLSHSPEHVEMALLSNILAAYSFVSENPERAALYFVSGVCIGLVLTLAALVIRISCHTDCRRRPGKKFLQDRESSSDSSDSEDGSEDTVSDLSVRRHRRFERTLNKNVFTSAEELERAQRLEERERIIREIWMNGQPEVPGTRSLNRYY [TMEM166]”, the “relative ERE luciferase activity” value amounted to 3.26.

As for “MRSGEELDGFEGEASSTSMISGASSPYQPTTEPVSQRRGLAGLRCDPDYLRGALGRLKVAQVILALIAFICIETIMACSPCEGLYFFEFVSCSAFVVTGVLLIMFSLNLHMRIPQINWNLTDLVNTGLSAFLFFIASIVLAALNHRAGAEIAAVIFGFLATAAYAVNTFLAVQKWRVSVRQQSTNDYIRARTESRDVDSRPEIQRLDTFSYSTNVTVRKKSPTNLLSLNHWQLA [CMTM4]”, the “relative ERE luciferase activity” value was found to be 1.16. In the case of “MRVTLATIAWMVSFVSNYSHTANILPDIENEDFIKDCVRIHNKFRSEVKPTASDMLYMTWDPALAQIAKAWASNCQFSHNTRLKPPHKLHPNFTSLGENIWTGSVPIFSVSSAITNWYDEIQDYDFKTRICKKVCGHYTQVVWADSYKVGCAVQFCPKVSGFDALSNGAHFICNYGPGGNYPTWPYKRGATCSACPNNDKCLDNLCVNRQRDQVKRYYSVVYPGWPIYPRNRYTSLFLIVNSVILILSVIITILVQHKYPNLVLLD [GLIPR1]”, the “relative ERE luciferase activity” value came out at 1.08. For the sequence “MSASVVSVISRFLEEYLSSTPQRLKLLDAYLLYILLTGALQFGYCLLVGTFPFNSFLSGFISCVGSFILAVCLRIQINPQNKADFQGISPERAFADFLFASTILHLVVMNFVG [DAD1]”, the “relative ERE luciferase activity” value turned out to be 0.799. The figure for “MSCVLGGVIPLGLLFLVCGSQGYLLPNVTLLEELLSKYQHNESHSRVRRAIPREDKEEILMLHNKLRGQVQPQASNMEYMTWDDELEKSAAAWASQCIWEHGPTSLLVSIGQNLGAHWGRYRSPGFHVQSWYDEVKDYTYPYPSECNPWCPERCSGPMCTHYTQIVWATTNKIGCAVNTCRKMTVWGEVWENAVYFVCNYSPKGNWIGEAPYKNGRPCSECPPSYGGSCRNNLCYREETYTPKPETDEMNEVETAPIPEENHVWLQPRVMRPTKPKKTSAVNYMTQVVRCDTKMKDRCKGSTCNRYQCPAGCLNHKAKIFGTLFYESSSSICRAAIHYGILDDKGGLVDITRNGKVPFFVKSERHGVQSLSKYKPSSSFMVSKVKVQDLDCYTTVAQLCPFEKPATHCPRIHCPAHCKDEPSYWAPVFGTNIYADTSSICKTAVHAGVISNESGGDVDVMPVDKKKTYVGSLRNGVQSESLGTPRDGKAFRIFAVRQ [CRISPLD2]” is 1.27; for “MSDCYTELEKAVIVLVENFYKYVSKYSLVKNKISKSSFREMLQKELNHMLSDTGNRKAADKLIQNLDANHDGRISFDEYWTLIGGITGPIAKLIHEQEQQSSS [S100A16]” it is 1.27; for “MSEQEAQAPGGRGLPPDMLAEQVELWWSQQPRRSALCFVVAVGLVAGCGAGGVALLSTTSSRSGEWRLATGTVLCLLALLVLVKQLMSSAVQDMNCIRQAHHVALLRSGGGADALVVLLSGLVLLVTGLTLAGLAAAPAPARPLAAMLSVGIALAALGSLLLLGLLLYQVGVSGHCPSICMATPSTHSGHGGHGSIFSISGQLSAGRRHETTSSIASLI [TMEM125]” it is 1.12. “MSFRKVVRQSKFRHVFGQPVKNDQCYEDIRVSRVTWDSTFCAVNPKFLAVIVEASGGGAFLVLPLSKTGRIDKAYPTVCGHTGPVLDIDWCPHNDEVIASGSEDCTVMVWQIPENGLTSPLTEPVVVLEGHTKRVGIIAWHPTARNVLLSAGCDNVVLIWNVGTAEELYRLDSLHPDLIYNVSWNHNGSLFCSACKDKSVRIIDPRRGTLVAEREKAHEGARPMRAIFLADGKVFTTGFSRMSERQLALWDPENLEEPMALQELDSSNGALLPFYDPDTSVVYVCGKGDSSIRYFEITEEPPYIHFLNTFTSKEPQRGMGSMPKRGLEVSKCEIARFYKLHERKCEPIVMTVPRKSDLFQDDLYPDTAGPEAALEAEEWVSGRDADPILISLREAYVPSKQRDLKISRRNVLSDSRPAMAPGSSHLGAPASTTTAADATPSGSLARAGEAGKLEEVMQELRALRALVKEQGDRICRLEEQLGRMENGDA [CORO1B]”: the “relative ERE luciferase activity” value amounted to 0.914.

For the origin of these results see the supplement of paper PMC2577665.
